This assay concerns Salmonella enterica serovar Typhimurium SL1344. The experiment in a line: bacterial growth OD600 after 18 h with compound and polymyxin B; higher = more bacterial growth (less inhibition). Conditions: 50 µM, Mueller-Hinton broth.

This is one part of the list. These are raw signals, not scaled to a control.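 In the initial screen, polymyxin B was used at a concentration that permeabilizes Salmonella's outer membrane but not its inner membrane. Maximum growth was set by DMSO wells with or without polymyxin B. Since plates varied, data were ranked per plate, and compounds giving the lowest OD600 advanced as hits.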

In the case of `COc1cccc(C(=O)N2CCC3(CC2)c2ccccc2[C@@H](NC(=O)c2ccccn2)[C@@H]3OC)c1`, the “bacterial growth OD600” value (polymyxin B 0.75 µg/mL) is 0.729. Same read-out and setting: as for `CCOc1ccc2nc(N3CCCN(Cc4cc(OC)c(OC)cc4OC)CC3)nc(C)c2c1`, the figure is 0.902; as for `COc1ccc(C2(CC(=O)N3CCN(c4ccccc4)C(=O)C3)CC(=O)N(CCC(C)C)C2=O)cc1` (stereo not given), 0.824. For the molecule `O=C(CCN1CCCCO1)NC1CCCN(Cc2ccccc2F)C1` (stereo not given), the “bacterial growth OD600” value (polymyxin B 1 µg/mL) stood at 0.905.

`COc1ccc(F)c(CN2CCCC3(CCN(C(=O)c4cccc(C)n4)C3)C2)c1` (stereo not given): the “bacterial growth OD600” value (polymyxin B 1 µg/mL) is 0.912.

Regarding `CCCc1ncc(CN(C)C2CCCN(CCCc3ccccc3)C2)cn1` (stereo not given), the “bacterial growth OD600” value (polymyxin B 1 µg/mL) is 0.993. Turning to `NC(=O)C1CCN(c2ccc(-c3nc(CCc4ccccc4)no3)cn2)CC1`, the “bacterial growth OD600” value (polymyxin B 1 µg/mL) is 0.793. Same read-out and setting: the result for `CC(=O)NCC(=O)N(C)C1CCCN(Cc2ccccc2F)C1` (stereo not given) reads 0.953. `c1ccc2c(c1)CC(NC1CSCCSC1)CO2` (stereo not given): the “bacterial growth OD600” value (polymyxin B 1 µg/mL) stood at 0.933. Same read-out and setting: as for `O=C(Nc1cccc(-c2ccc(F)cc2)c1)C1CCCN(C(=O)CC(F)(F)F)C1` (stereo not given), the figure is 0.461.

Regarding `COCC(C)NC(=O)c1csc2nc(-c3cccc(C(F)(F)F)c3)cn12` (stereo not given), for the setting “polymyxin B 1 µg/mL”, the “bacterial growth OD600” value came out at 1.11.

As to `Cc1nc[nH]c1CNC1CC(=O)N(CCc2cccc(Cl)c2)C1` (stereo not given), the “bacterial growth OD600” value (polymyxin B 1 µg/mL) amounted to 0.834.

In the case of `CCC1CN(C(=O)c2sccc2C)Cc2ccc(Cl)cc2O1` (stereo not given), the “bacterial growth OD600” value (polymyxin B 0.75 µg/mL) was 0.014.

On to `CC(C)CN1CCC(N2CCCC(C(=O)NCc3cccnc3)C2)CC1` (stereo not given), for which, where the note is “polymyxin B 1 µg/mL”, the “bacterial growth OD600” value was determined as 1.36.

For the molecule `COc1ccccc1OCC(=O)N1CCc2c(cnc(C)c2CNC(=O)c2ccccc2SC)C1`, the “bacterial growth OD600” value (polymyxin B 0.75 µg/mL) was 0.785. Consider `CCCCNC(=O)N1CCCC(Cc2ccc(F)cc2F)(C(=O)OCC)C1` (stereo not given), for which, where the note is “polymyxin B 1 µg/mL”, the “bacterial growth OD600” value worked out at 0.652. `CCN(Cc1nccn1C)C(=O)c1ccc(N2CCC[C@H]2CO)nc1`: the “bacterial growth OD600” value (polymyxin B 0.75 µg/mL) stood at 0.845.

Turning to `Cc1nc2ccccc2n1Cc1cc(C(=O)N2CCCCCCC2)n[nH]1`, for the setting “polymyxin B 1 µg/mL”, the “bacterial growth OD600” value is 0.992.

For `COc1cccc(CNC(=O)CCC2CCCN(Cc3nc4ccccc4n3C)C2)c1` (stereo not given), the “bacterial growth OD600” value (polymyxin B 0.75 µg/mL) is 0.857. On to `O=C(c1n[nH]c(=O)c2ccccc12)N1CCC2(CCCN(CC3CCCCC3)C2)C1` (stereo not given), for which the “bacterial growth OD600” value (polymyxin B 1 µg/mL) amounted to 0.915.
